{
  "source": "paper doi:10.1101/2020.09.06.285270",
  "biological_target": "T1, GST-CSK SH2 domain (UniProt P41240)",
  "T1 sequence": "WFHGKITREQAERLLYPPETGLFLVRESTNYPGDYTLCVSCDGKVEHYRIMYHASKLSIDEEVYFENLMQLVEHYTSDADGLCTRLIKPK",
  "assay": "pull-down",
  "note": "No constants are given. Whether binding was seen depends on the method and setting. In cells and extracts the contact can be indirect. Sequences can lack the tags named with a protein.",
  "data": [
    {"substance": "GFP-PAR-3 ΔCter (rat) (domain or fragment)", "values": [
      {"measurement": "binding", "result": "no binding"}
    ]}
  ]
}
